Results are given in words; binding and its absence hold for the method and conditions named. In cells and extracts the contact can be indirect. Some results given as binding are weak or reduced against the parent protein; the word gives no strength.
Target: Ezrin (human (endogenous in EA.hy 926)), P15311
Experiment: co-IP; anti-Ezrin antibody-conjugated beads, lysate of EA.hy 926 cells, 12 h at 4 °C, blot for PODXL; cells treated with TGF-β1 or VEGF, with or without NDF (5 or 20 μM) for 24 h
Conditions: remark: other sources report otherwise

binding: binds
B1: Podocalyxin, O00592 23-558 (protein)
chain: SPSPSPSPSQNATQTTTDSSNKTAPTPASSVTIMATDTAQQSTVPTSKANEILASVKATTLGVSSDSPGTTTLAQQVSGPVNTTVARGGGSGNPTTTIESPKSTKSADTTTVATSTATAKPNTTSSQNGAEDTTNSGGKSSHSVTTDLTSTKAEHLTTPHPTSPLSPRQPTSTHPVATPTSSGHDHLMKISSSSSTVAIPGYTFTSPGMTTTLLETVFHHVSQAGLELLTSGDLPTLASQSAGITASSVISQRTQQTSSQMPASSTAPSSQETVQPTSPATALRTPTLPETMSSSPTAASTTHRYPKTPSPTVAHESNWAKCEDLETQTQSEKQLVLNLTGNTLCAGGASDEKLISLICRAVKATFNPAQDKCGIRLASVPGSQTVVVKEITIHTKLPAKDVYERLKDKWDELKEAGVSDMKLGDQGPPEEAEDRFSMPLIITIVCMASFLLLVAALYGCCHQRLSQRKDQQRLTEELQTVENGYHDNPTLEVMETSSEMQEKKVVSLNGELGDSWIVPLDNLTKDDLDEEEDTHL

Reference: article PMC10988308
